Test [1] addresses GST-tagged wild-type NEDD4-1 (UniProt P46934). The test is described as follows: GST pull-down of GST-NEDD4-1 with lysate of cells expressing His-p34 (FIG. 10).
The target in test [2] is neuronal precursor cell-expressed developmentally down-regulated 4-1 (NEDD4-1), endogenous, in lysates of human cell lines (human) (UniProt P46934). The test is described as follows: reciprocal co-immunoprecipitation of endogenous proteins and Western blotting (FIGS. 3 and 4). (In general: Immunoblotting shows a protein as a band on a membrane.)
Test [3] shares this target. The test is described as follows: immunoprecipitation and Western blotting in cancer cell lines.
The next test concerns the target myc-tagged NEDD4-1 (UniProt P46934). Briefly: co-immunoprecipitation from transfected 293 cells, immunoblotting (FIG. 6).
Test [4] addresses T7-tagged wild-type NEDD4-1 (UniProt P46934). The test is described as follows: GST pull-down with purified GST-p34, immunoblot with anti-GST and anti-T7 antibodies (FIG. 7).
The target is the same in test [5]. Briefly: GST pull-down of purified GST-p34 with lysates of 293 cells expressing T7-tagged NEDD4-1 (FIG. 9).
Test [6] shares this target. The test is described as follows: GST pull-down, conclusion of Example 1-3.

By UniProt entry, the sequences of proteins in these tests, tags left out. Where a name states a change or a piece, a line headed by the entry shows the natural chain unless it says otherwise. Chains listed by the source or under a name are the forms on record and can include a tag or linker.
T7-tagged wild-type NEDD4-1 (P46934, form named): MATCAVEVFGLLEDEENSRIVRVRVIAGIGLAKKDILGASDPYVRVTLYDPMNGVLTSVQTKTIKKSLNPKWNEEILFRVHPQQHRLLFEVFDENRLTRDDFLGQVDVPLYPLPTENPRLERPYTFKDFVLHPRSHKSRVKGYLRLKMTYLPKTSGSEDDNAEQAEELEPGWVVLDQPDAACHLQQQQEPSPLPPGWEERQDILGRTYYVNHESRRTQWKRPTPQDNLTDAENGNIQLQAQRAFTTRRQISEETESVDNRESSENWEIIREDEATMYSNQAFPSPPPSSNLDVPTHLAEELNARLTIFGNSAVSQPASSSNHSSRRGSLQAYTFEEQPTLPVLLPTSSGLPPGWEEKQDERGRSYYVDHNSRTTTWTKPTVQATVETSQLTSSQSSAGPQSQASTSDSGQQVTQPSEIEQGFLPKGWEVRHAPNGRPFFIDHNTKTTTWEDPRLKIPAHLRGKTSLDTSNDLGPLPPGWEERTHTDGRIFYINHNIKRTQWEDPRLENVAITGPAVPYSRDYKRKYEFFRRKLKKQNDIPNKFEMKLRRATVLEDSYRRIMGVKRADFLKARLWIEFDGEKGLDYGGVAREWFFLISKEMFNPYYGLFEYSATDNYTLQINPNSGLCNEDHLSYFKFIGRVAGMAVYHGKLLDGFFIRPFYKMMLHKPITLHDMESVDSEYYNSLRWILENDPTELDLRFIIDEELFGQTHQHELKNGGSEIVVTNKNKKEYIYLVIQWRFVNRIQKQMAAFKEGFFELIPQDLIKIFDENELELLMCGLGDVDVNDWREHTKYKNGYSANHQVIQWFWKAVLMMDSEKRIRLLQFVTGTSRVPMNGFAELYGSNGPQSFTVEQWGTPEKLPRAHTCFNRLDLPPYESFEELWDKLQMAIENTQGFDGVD

For four molecules, binding results are on record in patent US9752151B2, “Composition for treatment or metastasis suppression of cancers which includes p34 expression inhibitor or activity inhibitor as active ingredient” (THE ASAN FOUNDATION, priority 2013, dated 2017).

These are yes or no findings as the source states them, for the method shown. For some of these results: In cells and extracts the contact can be indirect. Some binding calls cover weakened binding; strength is not graded here. For some of these results: Where a sequence is shown, tags or fusion partners need not be part of it.

B1: His-tagged p34 (other, UniProt Q9UHV2 1-236, looked up)
chain: MLSKGLKRKREEEEEKEPLAVDSWWLDPGHTAVAQAPPAVASSSLFDLSVLKLHHSLQQSEPDLRHLVLVVNTLRRIQASMAPAAALPPVPSPPAAPSVADNLLASSDAALSASMASLLEDLSHIEGLSQAPQPLADEGPPGRSIGGAAPSLGALDLLGPATGCLLDDGLEGLFEDIDTSMYDNELWAPASEGLKPGPEDGPGKEEAPELDEAELDYLMDVLVGTQALERPPGPGR
notes: Expressed in cells and used as lysate; also called His-p34; not shown: His tag
With B1, the binding entry in test [1] is listed as “binds”.

B2: p34 protein (endogenous, in lysates of human cancer cell lines) (protein, UniProt Q9UHV2 1-236, looked up)
chain: B1 chain
On to B2, for which the binding result in test [2] and in test [3] was “binds” in each case.

B3: GFP-tagged p34 (protein, UniProt Q9UHV2 1-236, looked up, not shown: large carriers)
chain: B1 chain
In the case of B3, the binding entry with myc-tagged NEDD4-1 was “binds”.

B4: GST-p34 protein (protein, UniProt Q9UHV2 1-236, looked up, not shown: a dimerising Fc or GST)
chain: B1 chain
Consider B4, for which the binding entry in test [4], in test [5] and in test [6] was “binds” throughout.
